Experimental data as given in US20100248978.
For at least one entry, the source does not settle the construct or the ends of the probe. Where cells or extracts were used, other partners may take part.

Sequences of proteins named here, by UniProt entry; tags and fusion partners are left off. A change or cut given only in a name is not applied to a line headed by its entry.
UniProt P93836: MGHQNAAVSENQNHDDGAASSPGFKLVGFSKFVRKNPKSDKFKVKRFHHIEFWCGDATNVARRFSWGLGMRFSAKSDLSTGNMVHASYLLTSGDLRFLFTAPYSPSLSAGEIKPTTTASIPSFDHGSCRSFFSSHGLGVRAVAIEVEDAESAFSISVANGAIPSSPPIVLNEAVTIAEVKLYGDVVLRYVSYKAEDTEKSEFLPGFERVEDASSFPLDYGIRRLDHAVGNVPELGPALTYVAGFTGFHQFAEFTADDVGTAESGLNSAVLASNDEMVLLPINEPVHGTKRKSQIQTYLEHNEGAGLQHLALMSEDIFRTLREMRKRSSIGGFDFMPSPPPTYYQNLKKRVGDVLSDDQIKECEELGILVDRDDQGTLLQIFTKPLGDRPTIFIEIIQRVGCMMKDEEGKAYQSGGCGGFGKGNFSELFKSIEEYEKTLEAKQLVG

Target: p-hydroxyphenylpyruvate dioxygenase (HPPD), endogenous (Arabidopsis thaliana) (UniProt P93836)
Test: pull-down
Details: endogenous HPPD from extract, identified by mass spectrometry (second hit after RubisCo); protein in an extract; label: 5' biotin (biotinylated ApG starter); variant of S116D-C8

“GGGAGAGGAGGGAGAUAGAUAUCAAUAAAGUCGGUGACACCACGCAUCCAAAUACCGGUACGCGGAACUAAUAGUUUGUCCUCACGGUGGAUGG [S116D-C8 biotinylated]”: binds.
